Data as given in PubChem BioAssay AID1259308 (NCATS, 2017)
Screen: 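Candidate targets for better recombinant protein yield in mammalian cells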 (primary screen). System: human HEK293 embryonic kidney cells stably expressing firefly luciferase (HEK-CMV-Luc2-Hygro). Reagent: single siRNA against human genes, 0.8 pmol siRNA per well. Duration: 72 h. Measurement: 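Reporter luminescence and viable-cell signal on separate replicate plates, given as percent of non-targeting control and median/MAD z-scores, plus per-cell luciferase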. Direction: total luciferase, z-score and total luciferase, % of control: higher = more reporter protein produced; luciferase per cell, z-score: higher = more reporter output per viable cell; viable cells, % of control: higher = more viable cells. Active means: 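Active when the median/MAD z-score for overall luciferase is greater than 3; a gene was taken forward for validation with new siRNAs if at least two of its three siRNAs passed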. Meaning of the calls: active = raised luciferase; inactive = no rise.
The whole screen tested about 59,000 reagents; this is an unselected part. Of all reagents, about 1,510 (2.6%) got an active call. 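Calls use total luciferase alone and ignore viability, so some active siRNAs may act by altering cell number.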 The numbers tell different reagents against one gene apart. No sequences are given here.

The first 3 records, ahead of the listing:
no.	target gene	siRNA no.	total luciferase, z-score	total luciferase, % of control	luciferase per cell, z-score	viable cells, % of control	Outcome
1	MAP3K3 (GeneID 4215)	1	1.39	109	1.48	82.8	inactive
2	MAP3K3 (GeneID 4215)	2	0.41	90	-0.25	107	inactive
3	MAP3K3 (GeneID 4215)	3	-1.43	53.4	-2.15	105	inactive

Results, from the first entry:
no.	target gene	siRNA no.	total luciferase, z-score	total luciferase, % of control	luciferase per cell, z-score	viable cells, % of control	Outcome
1	MAP3K3 (GeneID 4215)	1	1.39	109	1.48	82.8	inactive
2	MAP3K3 (GeneID 4215)	2	0.41	90	-0.25	107	inactive
3	MAP3K3 (GeneID 4215)	3	-1.43	53.4	-2.15	105	inactive
4	SERF1B (GeneID 728492)	1	-0.391	74.1	-0.428	92.7	inactive
5	SERF1B (GeneID 728492)	2	0.345	88.7	0.16	95.1	inactive
6	SERF1B (GeneID 728492)	3	-0.202	77.9	-0.419	97.2	inactive
7	RCC2 (GeneID 55920)	1	-0.354	74.8	-0.949	107	inactive
8	RCC2 (GeneID 55920)	2	0.229	86.5	0.129	93.4	inactive
9	RCC2 (GeneID 55920)	3	-0.233	77.3	-0.391	95.7	inactive
10	INTS14 (GeneID 81556)	1	0.9	99.8	1.29	79.5	inactive
11	INTS14 (GeneID 81556)	2	2.01	122	1.13	101	inactive
12	INTS14 (GeneID 81556)	3	-0.493	72.1	-0.766	98.5	inactive
13	STXBP4 (GeneID 252983)	1	-0.254	76.8	0.138	82.8	inactive
14	STXBP4 (GeneID 252983)	2	1.23	106	2.38	63.5	inactive
15	STXBP4 (GeneID 252983)	3	-1.26	56.8	-1.64	97.8	inactive
16	WDFY3 (GeneID 23001)	1	-0.0167	81.6	-0.141	94.6	inactive
17	WDFY3 (GeneID 23001)	2	-0.88	64.4	-1.27	101	inactive
18	WDFY3 (GeneID 23001)	3	0.701	95.8	1.11	80	inactive
19	POLA1 (GeneID 5422)	1	0.158	85	0.743	78.1	inactive
20	POLA1 (GeneID 5422)	2	-0.0275	81.3	-0.207	96	inactive
21	POLA1 (GeneID 5422)	3	-0.531	71.3	-0.506	91	inactive
22	ZKSCAN1 (GeneID 7586)	1	3.23	146	3.1	72.2	active
23	ZKSCAN1 (GeneID 7586)	2	1.67	115	1.84	79.2	inactive
24	ZKSCAN1 (GeneID 7586)	3	-0.238	77.1	-0.387	95.5	inactive
25	CD3D (GeneID 915)	1	1.81	118	1.12	98.1	inactive
26	CD3D (GeneID 915)	2	0.338	88.6	0.0971	96.5	inactive
27	CD3D (GeneID 915)	3	-0.065	80.6	-0.308	97.7	inactive
28	TEC (GeneID 7006)	1	1.47	111	2.06	72.1	inactive
29	TEC (GeneID 7006)	2	1.8	118	1.1	98.4	inactive
30	TEC (GeneID 7006)	3	0.0707	83.3	1.28	66.4	inactive
31	SCNN1B (GeneID 6338)	1	0.294	87.7	0.533	85.2	inactive
32	SCNN1B (GeneID 6338)	2	-0.066	80.6	-0.537	104	inactive
33	SCNN1B (GeneID 6338)	3	-1.7	48	-2.24	96.7	inactive
34	COMMD4P1 (GeneID 440292)	1	1.56	113	0.92	99	inactive
35	COMMD4P1 (GeneID 440292)	2	-1.16	58.8	-1.38	94.5	inactive
36	COMMD4P1 (GeneID 440292)	3	0.186	85.6	0.105	93	inactive
37	ALPK3 (GeneID 57538)	1	0.76	97	0.526	94.4	inactive
38	ALPK3 (GeneID 57538)	2	-0.868	64.6	-0.946	92.6	inactive
39	ALPK3 (GeneID 57538)	3	-0.866	64.7	0.789	58.7	inactive
40	OR2A4 (GeneID 79541)	1	-0.557	70.8	1.07	59.7	inactive
41	OR2A4 (GeneID 79541)	2	0.487	91.6	0.409	91.9	inactive
42	OR2A4 (GeneID 79541)	3	-0.0555	80.8	-0.805	112	inactive
43	TRPS1 (GeneID 7227)	1	-0.383	74.3	-0.0727	84.6	inactive
44	TRPS1 (GeneID 7227)	2	-0.887	64.2	-0.189	75.4	inactive
45	TRPS1 (GeneID 7227)	3	-0.642	69.1	-0.93	98.7	inactive
46	PXK (GeneID 54899)	1	0.141	84.7	-0.1	97.2	inactive
47	PXK (GeneID 54899)	2	1.9	120	2.15	75.9	inactive
48	PXK (GeneID 54899)	3	2.45	131	2.69	72	inactive
49	ALG1L8P (GeneID 645015)	1	-0.0967	80	0.894	70.6	inactive
50	ALG1L8P (GeneID 645015)	2	-1.98	42.5	-1.08	63.2	inactive
51	ALG1L8P (GeneID 645015)	3	1.15	105	1.11	87.4	inactive
52	UBA7 (GeneID 7318)	1	0.581	93.4	1.04	79.5	inactive
53	UBA7 (GeneID 7318)	2	0.711	96	0.396	96.7	inactive
54	UBA7 (GeneID 7318)	3	0.163	85.1	-0.197	100	inactive
55	FTHL18P (GeneID 441490)	1	-2	42.1	-1.6	71.7	inactive
56	FTHL18P (GeneID 441490)	2	-0.575	70.5	-0.698	94.6	inactive
57	FTHL18P (GeneID 441490)	3	0.445	90.7	0.821	81.7	inactive
58	CD2 (GeneID 914)	1	-0.176	78.4	-0.635	104	inactive
59	CD2 (GeneID 914)	2	-1.35	55.1	0.451	54.7	inactive
60	CD2 (GeneID 914)	3	0.949	101	0.177	107	inactive
61	ALDH5A1 (GeneID 7915)	1	0.217	86.2	-0.0271	97	inactive
62	ALDH5A1 (GeneID 7915)	2	0.0124	82.1	-0.0159	92.2	inactive
63	ALDH5A1 (GeneID 7915)	3	-0.841	65.2	-0.8	89.9	inactive
64	ITGA9 (GeneID 3680)	1	0.872	99.2	0.961	86.1	inactive
65	ITGA9 (GeneID 3680)	2	-1.35	55.1	-0.803	76.1	inactive
66	ITGA9 (GeneID 3680)	3	-1.26	56.9	-1.05	83.9	inactive
67	MYOZ1 (GeneID 58529)	1	0.094	83.8	0.153	89.9	inactive
68	MYOZ1 (GeneID 58529)	2	-0.00901	81.7	-1.03	120	inactive
69	MYOZ1 (GeneID 58529)	3	-1	62	-0.964	89.2	inactive
70	LIPT2 (GeneID 387787)	1	0.0506	82.9	-0.136	96	inactive
71	LIPT2 (GeneID 387787)	2	0.156	85	0.485	83.6	inactive
72	LIPT2 (GeneID 387787)	3	0.651	94.8	0.831	85.2	inactive
73	IRX6 (GeneID 79190)	1	-0.43	73.3	0.516	71.5	inactive
74	IRX6 (GeneID 79190)	2	-0.269	76.5	-0.437	96	inactive
75	IRX6 (GeneID 79190)	3	0.346	88.8	0.155	95.2	inactive
